The list does not hold the whole screen: it gathers tests that were run many times, whatever their T/C, doses with no T/C, and many T/C values between a quarter and a half above the control. Further doses and runs are listed elsewhere. T/C: endpoint of the treated group in % of that of the vehicle group. Some entries give survivors of the animals treated and no T/C: the source holds a T/C of zero for them, seemingly a mark for toxic or unscored doses. Some doses without a T/C left all or most animals alive at the check, yet need not have been tolerated: survival well below the control is almost never listed, so the zero probably covers shortened survival too. Counts of survivors are from the toxicity check (mostly the fifth day) where no day follows; animals may have died later. Schedules are NCI's codes, taken here to give the interval after Q, in days (D) or hours (H), and the number of doses after X. Some entries hold several experiments; the values are given in rising order. Where survival is the endpoint, the PubChem record calls one and a half times the control and up active, and a quarter to a half above the control has no call in these data; cut-offs in other NCI protocols can differ. Some T/C values carry the count of animals alive at the toxicity check (mostly the fifth day); without a count, all were alive then.
Test system: CD2F1 mice, L1210 leukemia ip, survival T/C
Experiment: NCI In Vivo Anticancer Drug Screen. Data for tumor model L1210 Leukemia (intraperitoneal) in CD2F1 (CDF1) mice
Details: higher T/C = longer survival
Outline: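 Compound-dosed mice with transplantable tumor versus matched vehicle controls; endpoint ratio T/C reported.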

[1] = T/C endpoint: mean survival time, dose: 100.0 mg/kg/injection, schedule: Q04DX003 (ip), vehicle: saline with Tween-80
[2] = T/C endpoint: mean survival time, dose: 200.0 mg/kg/injection, schedule: Q01DX009 (ip), vehicle: saline with Tween-80
[3] = T/C endpoint: mean survival time, dose: 400.0 mg/kg/injection, schedule: Q01DX009 (ip), vehicle: saline with Tween-80
[4] = T/C endpoint: mean survival time, dose: 40.0 mg/kg/injection, schedule: Q01DX001 (ip), vehicle: saline
[5] = T/C endpoint: mean survival time, dose: 200.0 mg/kg/injection, schedule: Q04DX003 (ip), vehicle: saline with Tween-80
[6] = T/C endpoint: mean survival time, dose: 400.0 mg/kg/injection, schedule: Q04DX003 (ip), vehicle: saline with Tween-80
[7] = T/C endpoint: mean survival time, dose: 100.0 mg/kg/injection, schedule: Q01DX009 (ip), vehicle: Klucel (hydroxypropylcellulose) (HPC)
[8] = T/C endpoint: mean survival time, dose: 200.0 mg/kg/injection, schedule: Q01DX009 (ip), vehicle: Klucel (hydroxypropylcellulose) (HPC)

O=C1NC(CN2CCCC(O)C2)C(=O)NC1CN1CCCC(O)C1 (stereo unspecified) (tested in a mixture with another compound)
T/C (T/C endpoint: mean survival time, dose: 100.0 mg/kg/injection, schedule: Q01DX009 (ip), vehicle: water): 132 % of control
survivor count (T/C endpoint: mean survival time, dose: 200.0 mg/kg/injection, schedule: Q01DX009 (ip), vehicle: water): 2 of 3
survivor count (T/C endpoint: mean survival time, dose: 400.0 mg/kg/injection, schedule: Q01DX009 (ip), vehicle: water): 1 of 3

O=C1C=CC(=O)N1c1ccc([N+](=O)[O-])cc1
survivor count (T/C endpoint: mean survival time, dose: 50.0 mg/kg/injection, schedule: Q04DX003 (ip), vehicle: Klucel (hydroxypropylcellulose) (HPC)): 0 of 6
survivor count (T/C endpoint: mean survival time, dose: 100.0 mg/kg/injection, schedule: Q04DX003 (ip), vehicle: Klucel (hydroxypropylcellulose) (HPC)): 0 of 6
survivor count (T/C endpoint: mean survival time, dose: 200.0 mg/kg/injection, schedule: Q04DX003 (ip), vehicle: Klucel (hydroxypropylcellulose) (HPC)): 0 of 6

CC1=C(/C=C/C(C)=N/NC(N)=S)C(C)(C)CCC1
survivor count (T/C endpoint: mean survival time, dose: 50.0 mg/kg/injection, schedule: Q01DX009 (ip), vehicle: saline with Tween-80): 1 of 6
survivor count [1]: 6 of 6

NC1CCCCC1N.O=S(=O)([O-])CCCN1CCOCC1.O=S(=O)([O-])CCCN1CCOCC1.[Pt+4]
T/C (T/C endpoint: median survival time, dose: 3.12 mg/kg/injection, schedule: Q04DX003 (ip), vehicle: saline with Tween-80): 137 % of control
survivor count (T/C endpoint: median survival time, dose: 100.0 mg/kg/injection, schedule: Q04DX003 (ip), vehicle: saline with Tween-80): 4 of 6 and 6 of 6
survivor count (T/C endpoint: median survival time, dose: 200.0 mg/kg/injection, schedule: Q04DX003 (ip), vehicle: saline with Tween-80): 0 of 6

C[N+](C)(C)CCC[n+]1ccc(CCn2ccc3ccccc32)cc1
survivor count (T/C endpoint: mean survival time, dose: 200.0 mg/kg/injection, schedule: Q01DX001 (ip), vehicle: saline): 0 of 3
survivor count (T/C endpoint: mean survival time, dose: 400.0 mg/kg/injection, schedule: Q01DX001 (ip), vehicle: saline): 0 of 3

Cc1csc2ncn(C3OC(CO)C(O)C3O)c(=O)c12 (stereo unspecified)
survivor count (T/C endpoint: mean survival time, dose: 100.0 mg/kg/injection, schedule: Q01DX009 (ip), vehicle: saline with Tween-80): 4 of 5
survivor count [2]: 3 of 5
survivor count [3]: 0 of 5

[Cl][Pt+2][Cl].[NH-]C1CCC1[NH-] (stereo unspecified)
T/C (T/C endpoint: median survival time, dose: 5.0 mg/kg/injection, schedule: Q04DX003 (ip), vehicle: Klucel (hydroxypropylcellulose) (HPC)): 133 % of control
survivor count (T/C endpoint: median survival time, dose: 20.0 mg/kg/injection, schedule: Q04DX003 (ip), vehicle: Klucel (hydroxypropylcellulose) (HPC)): 3 of 6
survivor count (T/C endpoint: median survival time, dose: 40.0 mg/kg/injection, schedule: Q04DX003 (ip), vehicle: Klucel (hydroxypropylcellulose) (HPC)): 0 of 6
survivor count (T/C endpoint: median survival time, dose: 80.0 mg/kg/injection, schedule: Q04DX003 (ip), vehicle: Klucel (hydroxypropylcellulose) (HPC)): 1 of 6

CCCCCCCCCCCCCCCC[N+](C)(C)C
survivor count (T/C endpoint: mean survival time, dose: 10.0 mg/kg/injection, schedule: Q01DX009 (ip), vehicle: saline with Tween-80): 1 of 6
survivor count (T/C endpoint: mean survival time, dose: 20.0 mg/kg/injection, schedule: Q01DX009 (ip), vehicle: saline with Tween-80): 2 of 6
survivor count (T/C endpoint: mean survival time, dose: 100.0 mg/kg/injection, schedule: Q04DX003 (ip), vehicle: saline): 0 of 6
survivor count (T/C endpoint: mean survival time, dose: 200.0 mg/kg/injection, schedule: Q04DX003 (ip), vehicle: saline): 0 of 6
survivor count (T/C endpoint: mean survival time, dose: 400.0 mg/kg/injection, schedule: Q04DX003 (ip), vehicle: saline): 0 of 6

FC(F)(F)c1ccc2c(c1)N(CCCN(CCCl)CCCl)c1ccccc1S2
survivor count [4]: 3 of 6

C(=N\N=C\C1CCc2ccccc21)/c1ccco1 (stereo unspecified)
survivor count [2]: 6 of 6

O=S(=O)(F)c1ccccc1
survivor count [5]: 1 of 6
survivor count [6]: 0 of 6

C[N+](C)(CC(=O)Nc1cccc(C(F)(F)F)c1)CC(=O)Nc1cccc(C(F)(F)F)c1
survivor count (T/C endpoint: mean survival time, dose: 12.5 mg/kg/injection, schedule: Q04DX003 (ip), vehicle: saline with Tween-80): 6 of 6
survivor count [1]: 4 of 6
survivor count [5]: 2 of 6
survivor count [6]: 0 of 6

C=C1C(O)C2(O)OCC34C(CC5C(C)=CC(=O)C(O)C5(C)C23)OC(=O)C(OC(=O)C/C=C/CCCCCCCC)C14 (stereo unspecified)
T/C (T/C endpoint: median survival time, dose: 4.0 mg/kg/injection, schedule: Q01DX005 (ip), vehicle: saline + alcohol): 125 % of control
T/C (T/C endpoint: median survival time, dose: 16.0 mg/kg/injection, schedule: Q01DX005 (ip), vehicle: saline + alcohol): 125 [5 of 6 alive] and 137 % of control [5 of 6 alive]
survivor count (T/C endpoint: median survival time, dose: 32.0 mg/kg/injection, schedule: Q01DX005 (ip), vehicle: saline + alcohol): 0 of 6 and 2 of 6
survivor count (T/C endpoint: median survival time, dose: 64.0 mg/kg/injection, schedule: Q01DX005 (ip), vehicle: saline + alcohol): 0 of 6

COc1cc(-c2ccncc2)nc(OC)n1
survivor count (T/C endpoint: mean survival time, dose: 400.0 mg/kg/injection, schedule: Q04DX002 (ip), vehicle: saline with Tween-80): 0 of 3

N#Cc1cnn2ccn(C3OC(COC(=O)c4ccccc4)C(OC(=O)c4ccccc4)C3OC(=O)c3ccccc3)c12 (stereo unspecified)
survivor count (T/C endpoint: median survival time, dose: 400.0 mg/kg/injection, schedule: Q01DX005 (ip), vehicle: saline with Tween-80): 6 of 6

NC(=O)c1ccc[n+](Cc2c(Cl)cccc2Cl)c1
survivor count [5]: 4 of 6
survivor count [6]: 0 of 6

NC(=S)c1ccc(C(N)=S)cc1
survivor count (T/C endpoint: mean survival time, dose: 400.0 mg/kg/injection, schedule: Q01DX001 (ip), vehicle: Klucel (hydroxypropylcellulose) (HPC)): 1 of 3

COc1ccc(NC2=NCCS2)cc1
survivor count [6]: 4 of 6

CCCCCCCCCCCC(=O)OCCN(C=O)C[n+]1ccccc1
survivor count (T/C endpoint: mean survival time, dose: 200.0 mg/kg/injection, schedule: Q04DX002 (ip), vehicle: saline): 1 of 3
survivor count (T/C endpoint: mean survival time, dose: 400.0 mg/kg/injection, schedule: Q04DX002 (ip), vehicle: saline): 0 of 3

COc1cc2cccnc2c2[nH]cc(C(=O)O)c(=O)c12
survivor count [2]: 5 of 6
survivor count [3]: 1 of 6

CCN(CC)c1ccc2cc(-c3nc4ccccc4n3C)c(=O)oc2c1
T/C (T/C endpoint: mean survival time, dose: 25.0 mg/kg/injection, schedule: Q01DX009 (ip), vehicle: Klucel (hydroxypropylcellulose) (HPC), evaluated on day 30): 93, 102, 103 % of control
T/C (T/C endpoint: mean survival time, dose: 25.0 mg/kg/injection, schedule: Q01DX009 (ip), vehicle: Klucel (hydroxypropylcellulose) (HPC), evaluated on day 60): 94 % of control
T/C [7]: 125 % of control [9 of 10 alive]
survivor count [7]: 0 of 6 and 3 of 6
survivor count [8]: 0 of 10, 0 of 6, 1 of 6

C=CC=O
survivor count (T/C endpoint: mean survival time, dose: 3.75 mg/kg/injection, schedule: Q01DX009 (ip), vehicle: saline): 0 of 6
survivor count (T/C endpoint: mean survival time, dose: 7.5 mg/kg/injection, schedule: Q01DX009 (ip), vehicle: saline): 0 of 6

O=C(O)C(O)C(O)C(O)C(O)C(=O)O.[NH-]C1CCCCC1[NH-].[Pt+2] (stereo unspecified)
T/C (T/C endpoint: median survival time, dose: 25.0 mg/kg/injection, schedule: Q04DX003 (ip), vehicle: saline): 126 % of control

c1cc(OCC2CO2)ccc1OCC1CO1 (stereo unspecified)
survivor count [8]: 6 of 6
survivor count (T/C endpoint: mean survival time, dose: 400.0 mg/kg/injection, schedule: Q01DX009 (ip), vehicle: Klucel (hydroxypropylcellulose) (HPC)): 1 of 6

Cc1ccc(S(=O)(=O)SC(F)(F)F)cc1
survivor count (T/C endpoint: mean survival time, dose: 20.0 mg/kg/injection, schedule: Q01DX001 (ip), vehicle: saline): 2 of 6
survivor count [4]: 0 of 6
survivor count (T/C endpoint: mean survival time, dose: 80.0 mg/kg/injection, schedule: Q01DX001 (ip), vehicle: saline): 0 of 6

NCCNc1ccc(NCCN)c2c1C(=O)c1ccccc1C2=O
T/C (T/C endpoint: mean survival time, dose: 1.56 mg/kg/injection, schedule: Q01DX009 (ip), vehicle: distilled water + Tween-80): 135 % of control
T/C (T/C endpoint: mean survival time, dose: 3.13 mg/kg/injection, schedule: Q01DX009 (ip), vehicle: distilled water + Tween-80): 147 % of control
survivor count (T/C endpoint: mean survival time, dose: 32.0 mg/kg/injection, schedule: Q01DX009 (ip), vehicle: acid diluted with saline): 1 of 6
survivor count (T/C endpoint: mean survival time, dose: 50.0 mg/kg/injection, schedule: Q01DX009 (ip), vehicle: distilled water + Tween-80): 0 of 6
survivor count (T/C endpoint: mean survival time, dose: 100.0 mg/kg/injection, schedule: Q01DX009 (ip), vehicle: distilled water + Tween-80): 0 of 6

Cc1cccc(C2=N/C(=C\c3ccc(N(C)C)cc3)C(=O)O2)c1
survivor count (T/C endpoint: mean survival time, dose: 100.0 mg/kg/injection, schedule: Q04DX002 (ip), vehicle: saline with Tween-80): 3 of 3
